Reference: PubChem BioAssay AID1671195 (Yale University, 2021)
The whole screen tested about 22,000 reagents; shown is an unselected part. Over the whole deposit, about 1,510 (6.9%) are marked active. 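Active includes knockdowns raising or lowering LDL uptake; positive z-scores mean more uptake, negative mean less.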 A number with no mark means an inactive call. The numbers tell different reagents against one gene apart.

Test: 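Knockdowns that increase or decrease uptake of fluorescent LDL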 (primary screen)
Cells: human Huh7 hepatoma cells
Reagent: siRNA pool against human genes, 18 nM
Time to read-out: about 2 to 2.5 days of knockdown, then 8 h LDL uptake
Treatment: DiI-labelled LDL at 30 µg/ml for 8 h, in lipoprotein-deficient serum medium
Measured: 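Fluorescent LDL signal imaged in cells, scaled to the plate median, robust z-score for each replicate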
Scale: robust z-score: higher = more LDL uptake after knockdown
Hit rule: 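a gene counts as active if at least two replicate z-scores exceed ±2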

target | pool no. | robust z-score, replicate 1 | robust z-score, replicate 2 | robust z-score, replicate 3
PDE6A (phosphodiesterase 6A) | 1 | -0.801 | -0.484 | -0.0997
PFN2 (profilin 2) | 1 | 1.19 | 0.714 | -0.515
FBXL6 (F-box and leucine rich repeat protein 6) | 1 | 0.367 | -0.767 | -0.493
PLAGL1 (PLAG1 like zinc finger 1) | 1 | 1.58 | 2.22 | 1.67
NCAPD2 (non-SMC condensin I complex subunit D2) | 1 | -0.657 | 0.346 | 0.238
FAM78A (family with sequence similarity 78 member A) | 1 | -0.292 | 0.0738 | -0.289
PGBD1 (piggyBac transposable element derived 1) | 1 | -0.68 | -0.488 | -0.265
COMMD10 (COMM domain containing 10) | 1 | 0.719 | 0.507 | 0.574
NUMA1 (nuclear mitotic apparatus protein 1) | 1 | 0.405 | 0.993 | 0.0361
RPS26 (ribosomal protein S26) | 1 | -0.675 | 0.122 | -0.281
SNIP1 (Smad nuclear interacting protein 1) | 1 | -0.244 | -0.916 | -0.321
TMEM266 (transmembrane protein 266) | 1 | 1.22 | 1.24 | -0.0534
SLC22A20P | 1 | -0.695 | -0.263 | -0.593
SLC22A20P | 2 | -0.458 | -0.434 | -0.855
CELF5 (CUGBP Elav-like family member 5) | 1 | -0.959 | 0.249 | 0.0993
BRDT (bromodomain testis associated) | 1 | -2.65 | -0.337 | -0.358
NRG2 (neuregulin 2) | 1 | 0.963 | -0.323 | -0.268
FBXO43 (F-box protein 43) | 1 | 1.02 | 1.07 | 0.681
UBL7-DT (UBL7 divergent transcript) | 1 | -1.91 | -1.72 | -1.81
NUCKS1 | 1 | -0.0763 | -0.79 | -0.391
EEF1A1 (eukaryotic translation elongation factor 1 alpha 1) | 1 | -0.823 | -1.54 | -1.22
FLJ41327 (retired record) | 1 | 0.861 | 0.937 | 1.25
STARD7-AS1 (STARD7 antisense RNA 1) | 1 | -0.5 | -0.682 | -0.778
KPNA3 (karyopherin subunit alpha 3) | 1 | -0.532 | -0.476 | -0.429
LRP10 (LDL receptor related protein 10) | 1 | -0.184 | 0.133 | -0.364
MED15 (mediator complex subunit 15) | 1 | 2.24 (active) | 0.973 | 3.09
TEX46 (testis expressed 46) | 1 | -1.24 | -2.4 | -1.59
SGCD (sarcoglycan delta) | 1 | 0.712 | -0.361 | -1.08

Part of the list above in another layout:
FBXL6 (F-box and leucine rich repeat protein 6) | robust z-score, replicate 1: 0.367; robust z-score, replicate 2: -0.767; robust z-score, replicate 3: -0.493
PLAGL1 (PLAG1 like zinc finger 1) | robust z-score, replicate 1: 1.58; robust z-score, replicate 2: 2.22; robust z-score, replicate 3: 1.67
